Results are given in words; binding and its absence hold for the method and conditions named. In cells and extracts the contact can be indirect. Some binding calls cover weakened binding; strength is not graded here.
Target: NS5A of HCV Jc1 in HCV replicating cells (hepatitis C virus, Jc1) (UniProt Q99IB8)
Experiment: co-IP; Huh7.5 cells electroporated with 10 ug of Jc1 RNA, lysates at 4 days; immunoprecipitated with rabbit anti-NS5A antibody or control IgG, blot with anti-ANKRD1 antibody

By UniProt entry, the sequences of proteins in these tests, tags left out. Residues count along the entry.
UniProt Q99IB8, residues 1977-2442: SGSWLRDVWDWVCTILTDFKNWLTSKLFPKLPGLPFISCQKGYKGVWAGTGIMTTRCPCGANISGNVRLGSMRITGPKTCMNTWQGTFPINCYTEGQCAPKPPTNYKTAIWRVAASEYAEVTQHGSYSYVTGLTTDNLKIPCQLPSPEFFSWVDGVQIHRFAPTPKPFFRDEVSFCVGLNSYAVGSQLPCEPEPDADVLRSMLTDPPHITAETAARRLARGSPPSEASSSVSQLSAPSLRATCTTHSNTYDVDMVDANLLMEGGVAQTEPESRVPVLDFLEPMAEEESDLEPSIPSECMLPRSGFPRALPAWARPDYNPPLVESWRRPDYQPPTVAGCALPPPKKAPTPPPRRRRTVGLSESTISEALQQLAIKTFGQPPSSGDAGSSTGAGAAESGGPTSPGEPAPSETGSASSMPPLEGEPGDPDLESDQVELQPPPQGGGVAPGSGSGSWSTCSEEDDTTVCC
UniProt Q15327: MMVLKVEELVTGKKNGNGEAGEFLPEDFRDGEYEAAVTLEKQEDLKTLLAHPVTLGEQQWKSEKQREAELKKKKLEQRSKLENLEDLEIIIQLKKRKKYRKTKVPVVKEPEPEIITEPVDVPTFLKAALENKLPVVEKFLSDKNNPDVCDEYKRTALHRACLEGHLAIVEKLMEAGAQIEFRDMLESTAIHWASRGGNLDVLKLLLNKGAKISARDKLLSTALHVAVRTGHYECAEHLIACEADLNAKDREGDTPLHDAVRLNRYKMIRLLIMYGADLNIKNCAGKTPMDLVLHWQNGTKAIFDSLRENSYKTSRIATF

endogenous ANKRD1 (from UniProt Q15327 1-319)
binding: binds

From publication PMC4748412
